Reference: patent US20160343958A1, “ORGANIC TRANSISTOR, COMPOUND, ORGANIC SEMICONDUCTOR MATERIAL FOR NON-LIGHT-EMITTING ORGANIC SEMICONDUCTOR DEVICE, MATERIAL FOR ORGANIC TRANSISTOR, COATING SOLUTION FOR NON-LIGHT-EMITTING ORGANIC SEMICONDUCTOR DEVICE, AND ORGANIC SEMICONDUCTOR FILM FOR NON-LIGHT-EMITTING ORGANIC SEMICONDUCTOR DEVICE” (FUJIFILM Corporation, priority 2014, published 2016)
Some compounds share one wording; it may come from a single statement.

Assays:
Conditions in all cases: 5-level grade A-E
[1] = Quality of coating film (average domain size, polarization microscope)
[2] = Variation (coefficient of variation of mobility of 30 elements)
[3] = Threshold voltage shift after repeated driving (threshold shift)

SMILES	Quality of coating film [1]	Variation [2]	Threshold shift [3]
CCCCC(CC)Cc1ccc2c(c1)sc1c2ccc2c3ccc(CC(CC)CCCC)cc3sc21 (stereo not drawn) [Compound example 407]	A (The average domain size was greater than 10 μm.)	A (Less than 30%)	A (|Vafter−Vbefore|≦1 V)
CCCCCCCCc1ccc2sc3c(ccc4c5cc(CCCCCCCC)ccc5sc43)c2c1 [Compound example 396]	C (The average domain size was greater than 1 μm but equal to or less than 5 μm.)	B (Equal to or greater than 30% but less than 50%)	B (1 V<|Vafter−Vbefore|≦5 V)
CCCc1ccc2c(c1)sc1c2ccc2c3ccc(CCC)cc3sc21 [Compound example 1]	C (The average domain size was greater than 1 μm but equal to or less than 5 μm.)	B (Equal to or greater than 30% but less than 50%)	B (1 V<|Vafter−Vbefore|≦5 V)
CCCCCCCCCCCCc1ccc(-c2ccc3c(c2)sc2c3ccc3c4ccccc4sc32)cc1 [Compound example 372]	C (The average domain size was greater than 1 μm but equal to or less than 5 μm.)	C (Equal to or greater than 50% but less than 100%)	C (5 V<|Vafter−Vbefore|≦10 V)
CCCCCCCCc1ccc(-c2ccc3c(c2)sc2c3ccc3c4ccc(-c5ccc(CCCCCCCC)s5)cc4sc32)s1 [Compound example 62]	B (The average domain size was greater than 5 μm but equal to or less than 10 μm.)	A (Less than 30%)	B (1 V<|Vafter−Vbefore|≦5 V)
c1ccc(-c2ccc3sc4c5sc6ccc(-c7ccccc7)cc6c5c(-c5ccccc5)c(-c5ccccc5)c4c3c2)cc1 [compound 4, reference compound]	D (The average domain size was greater than 0.5 μm but equal to or less than 1 μm.)	D (Equal to or greater than 100% but less than 200%)	C (5 V<|Vafter−Vbefore|≦10 V)
c1ccc(-c2cccc(-c3ccc4sc5c(ccc6c7cc(-c8cccc(-c9ccccc9)c8)ccc7sc65)c4c3)c2)cc1 [compound 3, reference compound]	C (The average domain size was greater than 1 μm but equal to or less than 5 μm.)	D (Equal to or greater than 100% but less than 200%)	C (5 V<|Vafter−Vbefore|≦10 V)
CCCCCCCCCCCCCCCCCCc1ccc2c(c1)sc1c2ccc2c3ccc(CCCCCCCCCCCCCCCCCC)cc3sc21 [Compound example 16]	C (The average domain size was greater than 1 μm but equal to or less than 5 μm.)	B (Equal to or greater than 30% but less than 50%)	B (1 V<|Vafter−Vbefore|≦5 V)
CCCCCCCCCCCCc1ccc2c(c1)sc1c2ccc2c3ccc(CCCCCCCCCCCC)cc3sc21 [Compound example 10]	A (The average domain size was greater than 10 μm.)	A (Less than 30%)	A (|Vafter−Vbefore|≦1 V)
CCCCCc1ccc2c(c1)sc1c2ccc2c3ccc(CCCCC)cc3sc21 [Compound example 3]	A (The average domain size was greater than 10 μm.)	A (Less than 30%)	A (|Vafter−Vbefore|≦1 V)
CCCCCCC#Cc1ccc2c(c1)sc1c2ccc2c3ccc(C#CCCCCCC)cc3sc21 [Compound example 310]	A (The average domain size was greater than 10 μm.)	A (Less than 30%)	B (1 V<|Vafter−Vbefore|≦5 V)
CCCCCCCCCCCCc1ccc2cc3c(cc2c1)sc1c3ccc2c3ccc(CCCCCCCCCCCC)cc3sc21 [Compound example 344]	C (The average domain size was greater than 1 μm but equal to or less than 5 μm.)	C (Equal to or greater than 50% but less than 100%)	C (5 V<|Vafter−Vbefore|≦10 V)
CCCCCCCCc1ccc(-c2ccc3c(c2)sc2c3ccc3c4ccc(-c5ccc(CCCCCCCC)cc5)cc4sc32)cc1 [Compound example 34]	B (The average domain size was greater than 5 μm but equal to or less than 10 μm.)	A (Less than 30%)	B (1 V<|Vafter−Vbefore|≦5 V)
CCCCCCCCc1ccc2cc3c(cc2c1)sc1c3ccc2c3cc4ccc(CCCCCCCC)cc4cc3sc21 [Compound example 20]	A (The average domain size was greater than 10 μm.)	A (Less than 30%)	A (|Vafter−Vbefore|≦1 V)
CCCCCCCCCCCCc1ccc2c(c1)sc1c2ccc2c3ccccc3sc21 [Compound example 358]	C (The average domain size was greater than 1 μm but equal to or less than 5 μm.)	C (Equal to or greater than 50% but less than 100%)	C (5 V<|Vafter−Vbefore|≦10 V)
CCCCCCCCc1ccc2c(c1)oc1c2ccc2c3ccc(CCCCCCCC)cc3oc21 [Compound example 416]	C (The average domain size was greater than 1 μm but equal to or less than 5 μm.)	C (Equal to or greater than 50% but less than 100%)	C (5 V<|Vafter−Vbefore|≦10 V)
CCCCCCCCc1ccc2c(c1)sc1c2ccc2c3ccc(CCCCCCCC)cc3sc21 [Compound example 6]	A (The average domain size was greater than 10 μm.)	A (Less than 30%)	A (|Vafter−Vbefore|≦1 V)
c1ccc2c(c1)sc1c2ccc2c3cccc(-c4ccc5c6ccccc6c6ccccc6c5c4)c3sc21 [comparative compound 6, reference compound]	E (The average domain size was equal to or less than 0.5 μm.)	E (Equal to or greater than 200%)	D (10 V<|Vafter−Vbefore|≦15 V)
CCCCCCCC/C=C/c1ccc2c(c1)sc1c2ccc2c3ccc(/C=C/CCCCCCCC)cc3sc21 [Compound example 298]	A (The average domain size was greater than 10 μm.)	A (Less than 30%)	B (1 V<|Vafter−Vbefore|≦5 V)
CCCCCCCCCCCCc1ccc2cc3c(cc2c1)sc1c3ccc2c3cc4ccc(CCCCCCCCCCCC)cc4cc3sc21 [Compound example 24]	A (The average domain size was greater than 10 μm.)	A (Less than 30%)	A (|Vafter−Vbefore|≦1 V)
CCCCCCCCOc1ccc2c(c1)sc1c2ccc2c3ccc(OCCCCCCCC)cc3sc21 [Compound example 326]	A (The average domain size was greater than 10 μm.)	A (Less than 30%)	B (1 V<|Vafter−Vbefore|≦5 V)
Cc1ccc2c(c1)sc1c2ccc2c3ccc(C)cc3sc21 [comparative compound 2, reference compound]	E (The average domain size was equal to or less than 0.5 μm.)	E (Equal to or greater than 200%)	C (5 V<|Vafter−Vbefore|≦10 V)
CCCCCCCCCCCCc1ccc(-c2ccc3c(c2)sc2c3ccc3c4ccccc4sc32)s1 [Compound example 386]	C (The average domain size was greater than 1 μm but equal to or less than 5 μm.)	C (Equal to or greater than 50% but less than 100%)	C (5 V<|Vafter−Vbefore|≦10 V)
C[Si](C)(C)C#Cc1c(C#C[Si](C)(C)C)c2c3ccc(-c4cccs4)cc3sc2c2sc3cc(-c4cccs4)ccc3c12 [Compound example 427]	C (The average domain size was greater than 1 μm but equal to or less than 5 μm.)	C (Equal to or greater than 50% but less than 100%)	C (5 V<|Vafter−Vbefore|≦10 V)
c1ccc2c(c1)sc1c2ccc2c3ccccc3sc21 [comparative compound 1, reference compound]	E (The average domain size was equal to or less than 0.5 μm.)	E (Equal to or greater than 200%)	C (5 V<|Vafter−Vbefore|≦10 V)
